Assay [1] addresses T1, GST-ATM-4 (residues 770-1102) (UniProt Q13315).
T1 sequence: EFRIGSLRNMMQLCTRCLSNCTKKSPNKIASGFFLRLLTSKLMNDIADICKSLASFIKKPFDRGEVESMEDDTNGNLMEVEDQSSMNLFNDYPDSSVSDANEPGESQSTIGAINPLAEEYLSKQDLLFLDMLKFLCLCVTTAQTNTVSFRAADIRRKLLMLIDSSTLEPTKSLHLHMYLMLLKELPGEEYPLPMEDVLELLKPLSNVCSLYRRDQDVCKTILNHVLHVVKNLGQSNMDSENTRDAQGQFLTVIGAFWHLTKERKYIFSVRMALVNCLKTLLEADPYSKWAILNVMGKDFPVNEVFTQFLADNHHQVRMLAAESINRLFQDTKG
Description: pull-down.

Amino acid sequences for entries named in this document (tags omitted). A change or cut given only in a name is not applied to a line headed by its entry.
UniProt Q8N6T7: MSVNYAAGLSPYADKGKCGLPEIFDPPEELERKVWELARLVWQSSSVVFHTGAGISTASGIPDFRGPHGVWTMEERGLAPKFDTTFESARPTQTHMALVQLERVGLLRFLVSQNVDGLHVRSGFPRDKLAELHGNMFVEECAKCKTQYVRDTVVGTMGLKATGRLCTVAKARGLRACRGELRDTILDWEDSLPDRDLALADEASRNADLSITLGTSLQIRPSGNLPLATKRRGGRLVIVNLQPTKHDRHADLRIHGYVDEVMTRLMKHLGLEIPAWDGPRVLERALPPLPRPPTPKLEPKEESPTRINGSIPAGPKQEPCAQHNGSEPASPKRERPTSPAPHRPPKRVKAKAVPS
UniProt Q00987: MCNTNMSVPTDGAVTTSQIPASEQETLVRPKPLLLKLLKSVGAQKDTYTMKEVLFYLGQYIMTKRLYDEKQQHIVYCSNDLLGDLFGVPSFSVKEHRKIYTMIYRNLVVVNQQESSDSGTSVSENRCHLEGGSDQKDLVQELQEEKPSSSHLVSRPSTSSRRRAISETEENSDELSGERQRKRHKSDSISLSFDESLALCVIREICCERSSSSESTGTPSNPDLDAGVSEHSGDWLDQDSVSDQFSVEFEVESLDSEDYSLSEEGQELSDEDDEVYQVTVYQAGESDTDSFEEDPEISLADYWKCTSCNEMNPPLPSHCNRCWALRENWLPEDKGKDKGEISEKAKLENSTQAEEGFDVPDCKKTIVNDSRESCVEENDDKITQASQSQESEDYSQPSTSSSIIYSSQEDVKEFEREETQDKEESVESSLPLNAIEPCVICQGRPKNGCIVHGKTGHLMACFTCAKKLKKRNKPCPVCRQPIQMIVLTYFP

A further assay addresses Flag-SIRT6 S112A (human) (UniProt Q8N6T7). Briefly: co-IP.
The next assay addresses Human Flag-SIRT6 (human) (UniProt Q8N6T7). Description: co-IP.

Results are given in words; binding and its absence hold for the method and conditions named. For part of these data: In cells and extracts the contact can be indirect. Some results given as binding are weak or reduced against the parent protein; the word gives no strength. For part of these data: Sequences can lack the tags named with a protein.

The results in this text go back to article doi:10.1101/240606.

“6 x His-tagged SIRT6 (from UniProt Q8N6T7 1-355)”: the binding entry in assay [1] is listed as “binds”.
human MDM2 (from UniProt Q00987 1-491): the binding entry with Flag-SIRT6 S112A (human) and with Human Flag-SIRT6 (human) was “binds” in each case.
